Assay results from US12144864B2 (Regeneron Pharmaceuticals, Inc., priority 2018, dated 2024).

Assay: peptide synthesis
[1] = whole synthesis, HPLC-MS, Agilent 1200 HPLC/6100 SQ, C18 columns, DAD (214 nm and 254 nm), ELSD
[2] = conjugation step, HPLC-MS, Agilent 1200 HPLC/6100 SQ, C18 columns, DAD (214 nm and 254 nm), ELSD

Row | Substance | step yield (coupling step) | conjugation yield (conjugation step) | final HPLC purity [2] | also measured
1 | (4S)-4-({2-[(1R,3R)-1-(Acetyloxy)-4-methyl-3-[(2S,3S)-3-methyl-2-{[(2R)-1-methylpiperidin-2-yl]formamido}-N-(pentyloxy)pentanamido]pentyl]-1,3-thiazol-4-yl}formamido)-5-(4-aminophenyl)-2,2-dimethylpentanoic acid | 30% |  |  | final HPLC purity (coupling step, Method B): 95%; final HPLC purity [1]: >99%
2 | (4S)-4-({2-[(1R,3R)-1-(Acetyloxy)-4-methyl-3-[(2S,3S)-3-methyl-2-{[(2R)-1-methylpiperidin-2-yl]formamido}-N-(pent-4-yn-1-yloxy)pentanamido]pentyl]-1,3-thiazol-4-yl}formamido)-5-[4-(2-{2-[2-(4-{2-azatricyclo[10.4.0.04,9]hexadeca-1(12),4(9),5,7,13,15-hexaen-10-yn-2-yl}-4-oxobutanamido)acetamido]acetamido}acetamido)phenyl]-2,2-dimethylpentanoic acid |  | 33% | 99% | 
3 | (4S)-4-({2-[(1R,3R)-1-(Acetyloxy)-4-methyl-3-[(2S,3S)-3-methyl-2-{[(2R)-1-methylpiperidin-2-yl]formamido}-N-(pent-4-yn-1-yloxy)pentanamido]pentyl]-1,3-thiazol-4-yl}formamido)-5-{4-[(2S)-4-carboxy-2-[2-(2-{2-[2-(cyclooct-2-yn-1-yloxy)acetamido]acetamido}acetamido)acetamido]butanamido]phenyl}-2,2-dimethylpentanoic acid |  | 58% | 95% | 
4 | (4S)-4-({2-[(1R,3R)-1-(Acetyloxy)-4-methyl-3-[(2S,3S)-3-methyl-2-{[(2R)-1-methylpiperidin-2-yl]formamido}-N-(pent-4-yn-1-yloxy)pentanamido]pentyl]-1,3-thiazol-4-yl}formamido)-2,2-dimethyl-5-phenylpentanoic acid | 35% |  |  | final HPLC purity (coupling step, Method B): >99%; final HPLC purity [1]: 100%
5 | (4S)-4-({2-[(1R,3R)-1-(Acetyloxy)-3-[(2S,3S)—N-hexyl-3-methyl-2-{[(2R)-1-methylpiperidin-2-yl]formamido}pentanamido]-4-methylpentyl]-1,3-thiazol-4-yl}formamido)-5-(4-fluorophenyl)-2,2-dimethylpentanoic acid | 26% yield |  |  | 
6 | (4S)-4-({2-[(1R,3R)-1-(Acetyloxy)-4-methyl-3-[(2S,3S)-3-methyl-2-{[(2R)-1-methylpiperidin-2-yl]formamido}-N-(pent-4-yn-1-yloxy)pentanamido]pentyl]-1,3-thiazol-4-yl}formamido)-5-{4-[(2S)-2-[(2R)-2-[(2S)-2-[2-(cyclooct-2-yn-1-yloxy)acetamido]propanamido]propanamido]propanamido]phenyl}-2,2-dimethylpentanoic acid |  |  | 95% | 
7 | (2S,4R)-4-({2-[(1R,3R)-1-(Acetyloxy)-3-[(2S,3S)—N-(hex-5-yn-1-yl)-3-methyl-2-{[(2R)-1-methylpiperidin-2-yl]formamido}pentanamido]-4-methylpentyl]-1,3-thiazol-4-yl}formamido)-5-(4-hydroxyphenyl)-2-methylpentanoic acid | 43% yield |  |  | final HPLC purity (coupling step, Method B): >99%; final HPLC purity [1]: 100%
8 | (2S,4R)-4-(2-((8R,10R)-1-(4-Aminophenyl)-8-isopropyl-7-((2S,3S)-3-methyl-2-((R)-1-methylpiperidine-2-carboxamido)pentanoyl)-12-oxo-2,6,11-trioxa-7-azatridecan-10-yl)thiazole-4-carboxamido)-5-(4-hydroxyphenyl)-2-methylpentanoic acid |  |  |  | step yield (late stage modification step): 53%
9 | (1R,3R)-1-(4-{[(2R,4S)-4-{N′-[({4-[(2S)-2-[(2S)-2-[1-(4-{2-azatricyclo[10.4.0.0^{4,9}]hexadeca-1(12),4(9),5,7,13,15-hexaen-10-yn-2-yl}-4-oxobutanamido)-3,6,9,12-tetraoxapentadecan-15-amido]-3-methylbutanamido]-5-(carbamoylamino)pentanamido]phenyl}methoxy)carbonyl] hydrazinecarbonyl}-1-(4-hydroxyphenyl)-4-methylbutan-2-yl]carbamoyl}-1,3-thiazol-2-yl)-3-[(2S,3S)—N-(hexyloxy)-3-methyl-2-{[(2R)-1-methylpiperidin-2-yl]formamido}pentanamido]-4-methylpentyl acetate |  | 27% | 95% | 
10 | (4S)-5-(4-{[({4-[(2S)-2-[(2S)-2-[1-(4-{2-Azatricyclo[10.4.0.04,9]hexadeca-1(12),4(9),5,7,13,15-hexaen-10-yn-2-yl}-4-oxobutanamido)-3,6,9,12-tetraoxapentadecan-15-amido]-3-methylbutanamido]-5-(carbamoylamino)pentanamido]phenyl}methoxy)carbonyl]amino}phenyl)-2,2-dimethyl-4-({2-[(1R,3R)-4-methyl-3-[(2S,3S)-3-methyl-2-{[(2R)-1-methylpiperidin-2-yl]formamido}-N-(pentyloxy)pentanamido]-1-[(methylcarbamoyl)oxy]pentyl]-1,3-thiazol-4-yl}formamido)pentanoic acid |  | 80% | 99% | 
11 | (4S)-5-(4-Acetamidophenyl)-4-({2-[(1R,3R)-1-[(ethylcarbamoyl)oxy]-4-methyl-3-[(2S,3S)-3-methyl-2-{[(2R)-1-methylpiperidin-2-yl]formamido}-N-(pent-4-yn-1-yloxy)pentanamido]pentyl]-1,3-thiazol-4-yl}formamido)-2,2-dimethylpentanoic acid |  |  |  | step yield (late stage modification step): 28%; final HPLC purity (late stage modification step, method B): 100%
12 | (2S,4R)-5-(4-Hydroxyphenyl)-4-(2-((8R,10R)-10-isopropyl-11-((2S,3S)-3-methyl-2-((R)-1-methylpiperidine-2-carboxamido)pentanoyl)-6-oxo-7,12-dioxa-5,11-diazaoctadecan-8-yl)thiazole-4-carboxamido)-2-methylpentanoic acid | 50% |  |  | 
13 | (4S)-5-{4-[(2S)-2-[(2S)-2-[1-(4-{2-Azatricyclo[10.4.0.0^4,9]hexadeca-1(12),4(9),5,7,13,15-hexaen-10-yn-2-yl}-4-oxobutanamido)-3,6,9,12-tetraoxapentadecan-15-amido]-3-methylbutanamido]-5-(carbamoylamino)pentanamido]phenyl}-2,2-dimethyl-4-({2-[(1R,3R)-4-methyl-3-[(2S,3S)-3-methyl-2-{[(2R)-1-methylpiperidin-2-yl]formamido}-N-(pentyloxy)pentanamido]-1-[(methylcarbamoyl)oxy]pentyl]-1,3-thiazol-4-yl}formamido)pentanoic acid |  | 52% | >99% | 
14 | (1R,3R)-1-(4-((S)-1-(4-Aminophenyl)-5-hydrazinyl-4,4-dimethyl-5-oxopentan-2-ylcarbamoyl)thiazol-2-yl)-3-((2S,3S)—N-hexyl-3-methyl-2-((R)-1-methylpiperidine-2-carboxamido)pentanamido)-4-methylpentyl acetate |  |  |  | step yield (late stage modification step, from Fmoc-IVq): 11%; final HPLC purity [1]: 95%
15 | (S)-4-(2-((1R,3R)-1-Acetoxy-3-((2S,3S)—N-hexyl-3-methyl-2-((R)-1-methylpiperidine-2-carboxamido)pentanamido)-4-methylpentyl)thiazole-4-carboxamido)-5-(4-aminophenyl)-2,2-dimethylpentanoic acid | 72% yield |  |  | final HPLC purity [1]: 97.2%
16 | 4-((S)-2-((S)-2-(6-(2,5-dioxo-2,5-dihydro-1H-pyrrol-1-yl)hexanamido)-3-methylbutanamido)-5-ureidopentanamido)benzyl-((2S,4R)-4-(2-((1R,3R)-1-acetoxy-3-((2S,3R)—N-hexyl-3-methyl-2-((R)-1-methylpiperidine-2-carboxamido)pentanamido)-4-methylpentyl)thiazole-4-carboxamido)-5-(4-fluorophenyl)-2-methylpentanoyl)hydrazinecarboxylate |  | 66% | 85% | 
17 | (4S)-4-({2-[(1R,3R)-1-(Acetyloxy)-4-methyl-3-[(2S,3S)-3-methyl-2-{[(2R)-1-methylpiperidin-2-yl]formamido}-N-(pent-4-yn-1-yloxy)pentanamido]pentyl]-1,3-thiazol-4-yl}formamido)-5-{4-[(2S)-2-amino-4-carboxybutanamido]phenyl} | 63% |  |  | 
18 | (4S)-4-({2-[(1R,3R)-1-(Acetyloxy)-4-methyl-3-[(2S,3S)-3-methyl-2-{[(2R)-1-methylpiperidin-2-yl]formamido}-N-(pent-4-yn-1-yloxy)pentanamido]pentyl]-1,3-thiazol-4-yl}formamido)-5-(4-{2-[2-(2-{2-[(2S)-2-[2-(cyclooct-2-yn-1-yloxy)acetamido]-3-hydroxypropanamido]acetamido}acetamido)acetamido]acetamido}phenyl)-2,2-dimethylpentanoic acid |  | 44% | >95% | 
19 | (4S)-4-({2-[(1R,3R)-1-(Acetyloxy)-3-[(2S,3S)—N-hexyl-3-methyl-2-{[(2R)-1-methylpiperidin-2-yl]formamido}pentanamido]-4-methylpentyl]-1,3-thiazol-4-yl}formamido)-5-{4-[(2S)-2-[(2S)-2-[1-({[(1R,8S,9R)-bicyclo[6.1.0]non-4-yn-9-ylmethoxy]carbonyl}amino)-3,6,9,12-tetraoxapentadecan-15-amido]-3-methylbutanamido]propanamido]-3-fluorophenyl}-2,2-dimethylpentanoic acid |  | 48% | >99% | 
20 | (2S,4R)-5-(4-Hydroxyphenyl)-4-(2-((5R,7R)-7-isopropyl-8-((2S,3S)-3-methyl-2-((R)-1-methylpiperidine-2-carboxamido)pentanoyl)-3-oxo-4,9-dioxa-2,8-diazapentadecan-5-yl)thiazole-4-carboxamido)-2-methylpentanoic acid | 36% |  |  | 
